Where a name gives a salt, the structure may show the parent alone. This is one part of the list. The calls rarely recur for the same compound in another form.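 Kinases, fused to nanoluciferase, were expressed in K562 cells; luminescence was measured every 4 h from 2 to 18 h as percent of control (DMSO = 100%, positive control = 0%). A time point is decreased if signal falls significantly (2 sigma). Hits were called by the authors by a rule that is not shown; the count of time points alone does not decide it.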
What was measured:
Assay in all cases: kinase-Nluc reporter destabilization hit call (1 = scored as downregulated) (binary); higher = compound decreases kinase abundance
Conditions in all cases: K562; 2-18 h
ABL1 = ABL1 (UniProt P00519)
AKT1 = AKT1 (UniProt P31749)
ALK = ALK (UniProt Q9UM73)
ARAF = ARAF (UniProt P10398)
AURKA = AURKA (UniProt O14965)
AURKB = AURKB (UniProt Q96GD4)
AURKC = AURKC (UniProt Q9UQB9)
BLK = BLK (UniProt P51451)
BMX = BMX (UniProt P51813)
BRAF = BRAF (UniProt P15056)

Sequences of proteins named here, by UniProt entry; tags and fusion partners are left off. A change or cut given only in a name is not applied to a line headed by its entry.
UniProt P00519, whole entry: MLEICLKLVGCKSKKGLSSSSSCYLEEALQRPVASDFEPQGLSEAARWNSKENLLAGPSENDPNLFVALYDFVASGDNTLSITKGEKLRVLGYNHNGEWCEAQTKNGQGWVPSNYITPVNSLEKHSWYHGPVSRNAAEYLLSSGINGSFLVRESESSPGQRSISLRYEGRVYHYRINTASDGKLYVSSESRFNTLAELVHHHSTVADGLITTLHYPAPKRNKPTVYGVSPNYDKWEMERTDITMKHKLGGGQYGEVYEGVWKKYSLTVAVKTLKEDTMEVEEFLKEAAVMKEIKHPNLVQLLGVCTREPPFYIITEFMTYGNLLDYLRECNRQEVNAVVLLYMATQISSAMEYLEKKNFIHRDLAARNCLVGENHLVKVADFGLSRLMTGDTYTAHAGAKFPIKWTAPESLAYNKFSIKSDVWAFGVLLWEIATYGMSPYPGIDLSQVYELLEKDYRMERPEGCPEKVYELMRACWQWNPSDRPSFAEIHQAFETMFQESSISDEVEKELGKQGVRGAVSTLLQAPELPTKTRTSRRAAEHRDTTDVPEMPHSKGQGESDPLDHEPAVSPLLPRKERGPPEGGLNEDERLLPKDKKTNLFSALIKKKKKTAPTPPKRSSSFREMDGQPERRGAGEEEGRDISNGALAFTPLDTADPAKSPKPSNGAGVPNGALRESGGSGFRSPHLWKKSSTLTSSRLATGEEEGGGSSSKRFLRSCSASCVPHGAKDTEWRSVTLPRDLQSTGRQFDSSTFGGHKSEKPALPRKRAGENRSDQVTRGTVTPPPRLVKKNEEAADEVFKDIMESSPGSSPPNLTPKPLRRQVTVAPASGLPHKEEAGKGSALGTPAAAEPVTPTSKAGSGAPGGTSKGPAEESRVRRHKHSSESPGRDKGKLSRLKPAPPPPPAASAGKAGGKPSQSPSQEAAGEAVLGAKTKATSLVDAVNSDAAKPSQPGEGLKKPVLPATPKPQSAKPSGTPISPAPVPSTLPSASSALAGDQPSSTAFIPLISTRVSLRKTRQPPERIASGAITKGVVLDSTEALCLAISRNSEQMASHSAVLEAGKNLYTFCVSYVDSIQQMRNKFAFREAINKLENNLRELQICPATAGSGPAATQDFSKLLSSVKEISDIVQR
UniProt P31749: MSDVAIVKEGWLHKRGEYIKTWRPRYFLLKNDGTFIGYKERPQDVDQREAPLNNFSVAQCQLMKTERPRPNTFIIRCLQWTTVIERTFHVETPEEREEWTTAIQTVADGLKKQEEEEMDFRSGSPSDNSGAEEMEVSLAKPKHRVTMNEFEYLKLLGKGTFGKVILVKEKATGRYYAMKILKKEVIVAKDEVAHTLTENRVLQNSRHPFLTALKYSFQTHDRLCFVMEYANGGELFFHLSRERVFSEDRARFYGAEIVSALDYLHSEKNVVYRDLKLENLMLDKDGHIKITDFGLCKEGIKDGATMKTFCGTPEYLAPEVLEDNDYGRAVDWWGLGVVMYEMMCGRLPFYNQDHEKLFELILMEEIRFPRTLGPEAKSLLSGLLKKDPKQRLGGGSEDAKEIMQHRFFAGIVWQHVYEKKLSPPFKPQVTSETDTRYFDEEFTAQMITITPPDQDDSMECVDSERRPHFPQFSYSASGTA
UniProt Q9UM73: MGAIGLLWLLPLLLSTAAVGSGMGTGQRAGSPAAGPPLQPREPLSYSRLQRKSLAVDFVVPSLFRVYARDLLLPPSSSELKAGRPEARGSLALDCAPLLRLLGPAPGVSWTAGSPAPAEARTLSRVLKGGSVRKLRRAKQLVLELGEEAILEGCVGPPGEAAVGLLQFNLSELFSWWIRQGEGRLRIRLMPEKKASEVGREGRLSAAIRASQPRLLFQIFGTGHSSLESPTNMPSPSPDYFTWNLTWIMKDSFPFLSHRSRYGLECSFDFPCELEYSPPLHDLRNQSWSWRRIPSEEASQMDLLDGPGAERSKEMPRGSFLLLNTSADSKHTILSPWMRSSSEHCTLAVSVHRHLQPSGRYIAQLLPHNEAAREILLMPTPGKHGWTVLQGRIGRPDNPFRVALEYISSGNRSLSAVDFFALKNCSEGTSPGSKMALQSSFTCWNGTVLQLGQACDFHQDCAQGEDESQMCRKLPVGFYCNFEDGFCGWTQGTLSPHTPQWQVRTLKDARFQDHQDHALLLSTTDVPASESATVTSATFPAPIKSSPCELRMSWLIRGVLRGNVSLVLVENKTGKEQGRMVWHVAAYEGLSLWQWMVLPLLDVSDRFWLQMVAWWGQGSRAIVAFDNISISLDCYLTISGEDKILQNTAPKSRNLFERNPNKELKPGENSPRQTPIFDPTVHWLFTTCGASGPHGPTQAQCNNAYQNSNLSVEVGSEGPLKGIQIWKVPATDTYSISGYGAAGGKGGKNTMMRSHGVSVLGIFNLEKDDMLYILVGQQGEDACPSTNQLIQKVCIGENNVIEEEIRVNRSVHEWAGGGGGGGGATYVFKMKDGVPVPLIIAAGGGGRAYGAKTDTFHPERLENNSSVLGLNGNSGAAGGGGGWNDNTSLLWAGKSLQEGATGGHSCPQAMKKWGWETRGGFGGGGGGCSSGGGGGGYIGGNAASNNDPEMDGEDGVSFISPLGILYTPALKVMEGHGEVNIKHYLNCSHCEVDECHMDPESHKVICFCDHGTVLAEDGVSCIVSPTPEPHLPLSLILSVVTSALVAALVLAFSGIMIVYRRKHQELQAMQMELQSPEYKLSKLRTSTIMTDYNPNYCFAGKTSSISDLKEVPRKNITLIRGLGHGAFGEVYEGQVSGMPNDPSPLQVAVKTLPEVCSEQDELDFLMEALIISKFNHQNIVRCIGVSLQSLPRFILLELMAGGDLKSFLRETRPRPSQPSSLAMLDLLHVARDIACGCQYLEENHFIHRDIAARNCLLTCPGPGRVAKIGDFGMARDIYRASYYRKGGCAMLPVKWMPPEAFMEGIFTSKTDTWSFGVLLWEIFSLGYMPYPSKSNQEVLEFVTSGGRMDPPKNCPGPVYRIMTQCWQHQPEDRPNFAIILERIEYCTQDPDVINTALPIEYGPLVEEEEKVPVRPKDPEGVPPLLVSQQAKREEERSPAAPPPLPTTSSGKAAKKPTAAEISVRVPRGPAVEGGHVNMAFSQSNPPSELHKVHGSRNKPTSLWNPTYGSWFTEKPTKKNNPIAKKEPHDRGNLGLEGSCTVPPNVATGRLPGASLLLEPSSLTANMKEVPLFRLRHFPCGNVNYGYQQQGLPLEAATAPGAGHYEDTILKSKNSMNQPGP
UniProt P10398: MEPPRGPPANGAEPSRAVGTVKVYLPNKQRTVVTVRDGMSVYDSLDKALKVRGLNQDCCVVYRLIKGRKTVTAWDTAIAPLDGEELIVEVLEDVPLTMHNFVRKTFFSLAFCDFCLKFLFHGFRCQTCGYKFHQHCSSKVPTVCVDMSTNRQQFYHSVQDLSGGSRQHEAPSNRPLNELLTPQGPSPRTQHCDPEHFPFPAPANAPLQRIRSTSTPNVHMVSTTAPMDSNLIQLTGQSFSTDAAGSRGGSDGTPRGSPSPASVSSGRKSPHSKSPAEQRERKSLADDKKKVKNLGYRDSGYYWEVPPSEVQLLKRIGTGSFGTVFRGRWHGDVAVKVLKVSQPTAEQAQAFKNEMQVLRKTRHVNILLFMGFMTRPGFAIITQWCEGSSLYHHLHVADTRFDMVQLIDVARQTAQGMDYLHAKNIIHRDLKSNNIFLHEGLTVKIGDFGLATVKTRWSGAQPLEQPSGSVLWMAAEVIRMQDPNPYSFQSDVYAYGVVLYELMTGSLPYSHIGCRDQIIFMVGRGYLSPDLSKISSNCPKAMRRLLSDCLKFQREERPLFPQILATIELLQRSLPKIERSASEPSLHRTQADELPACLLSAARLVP
UniProt O14965: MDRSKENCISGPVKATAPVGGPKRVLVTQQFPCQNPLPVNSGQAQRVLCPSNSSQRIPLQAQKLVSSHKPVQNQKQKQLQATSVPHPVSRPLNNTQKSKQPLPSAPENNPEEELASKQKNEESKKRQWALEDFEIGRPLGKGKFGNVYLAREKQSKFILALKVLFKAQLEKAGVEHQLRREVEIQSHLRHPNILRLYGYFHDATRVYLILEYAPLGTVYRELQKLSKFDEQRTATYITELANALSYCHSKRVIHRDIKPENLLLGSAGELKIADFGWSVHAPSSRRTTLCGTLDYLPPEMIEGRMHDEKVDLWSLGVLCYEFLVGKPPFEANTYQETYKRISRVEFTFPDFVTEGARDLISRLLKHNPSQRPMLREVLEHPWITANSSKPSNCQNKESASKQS
UniProt Q96GD4, whole entry: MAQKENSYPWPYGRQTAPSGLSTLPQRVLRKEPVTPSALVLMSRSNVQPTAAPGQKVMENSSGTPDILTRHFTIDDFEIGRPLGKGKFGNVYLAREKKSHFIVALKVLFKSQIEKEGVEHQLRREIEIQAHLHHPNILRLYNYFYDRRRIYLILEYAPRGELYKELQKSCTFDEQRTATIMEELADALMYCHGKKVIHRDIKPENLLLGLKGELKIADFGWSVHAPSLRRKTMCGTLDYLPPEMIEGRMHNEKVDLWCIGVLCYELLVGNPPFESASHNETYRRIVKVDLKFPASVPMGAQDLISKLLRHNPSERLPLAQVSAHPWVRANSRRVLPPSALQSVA
UniProt Q9UQB9: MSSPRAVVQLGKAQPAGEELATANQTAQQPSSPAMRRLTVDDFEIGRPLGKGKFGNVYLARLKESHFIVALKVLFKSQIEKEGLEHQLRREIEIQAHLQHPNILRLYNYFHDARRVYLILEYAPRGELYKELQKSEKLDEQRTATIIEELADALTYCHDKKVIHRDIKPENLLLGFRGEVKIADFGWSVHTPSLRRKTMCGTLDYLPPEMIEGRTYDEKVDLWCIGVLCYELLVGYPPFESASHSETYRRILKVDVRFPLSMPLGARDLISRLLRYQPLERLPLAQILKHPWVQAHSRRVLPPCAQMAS
UniProt P51451: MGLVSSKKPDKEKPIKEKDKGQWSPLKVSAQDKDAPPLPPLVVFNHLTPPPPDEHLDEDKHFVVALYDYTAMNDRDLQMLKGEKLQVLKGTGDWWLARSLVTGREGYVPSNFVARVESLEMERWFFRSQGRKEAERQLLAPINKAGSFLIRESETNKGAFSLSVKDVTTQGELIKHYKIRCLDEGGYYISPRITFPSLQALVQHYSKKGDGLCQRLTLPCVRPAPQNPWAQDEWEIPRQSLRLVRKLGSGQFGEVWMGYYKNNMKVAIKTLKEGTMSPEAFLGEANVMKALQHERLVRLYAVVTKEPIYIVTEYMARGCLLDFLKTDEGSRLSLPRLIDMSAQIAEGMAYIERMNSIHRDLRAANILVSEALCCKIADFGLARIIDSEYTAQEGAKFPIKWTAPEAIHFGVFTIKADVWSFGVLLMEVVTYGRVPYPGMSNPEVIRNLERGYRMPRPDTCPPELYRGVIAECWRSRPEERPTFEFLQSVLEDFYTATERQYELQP
UniProt P51813: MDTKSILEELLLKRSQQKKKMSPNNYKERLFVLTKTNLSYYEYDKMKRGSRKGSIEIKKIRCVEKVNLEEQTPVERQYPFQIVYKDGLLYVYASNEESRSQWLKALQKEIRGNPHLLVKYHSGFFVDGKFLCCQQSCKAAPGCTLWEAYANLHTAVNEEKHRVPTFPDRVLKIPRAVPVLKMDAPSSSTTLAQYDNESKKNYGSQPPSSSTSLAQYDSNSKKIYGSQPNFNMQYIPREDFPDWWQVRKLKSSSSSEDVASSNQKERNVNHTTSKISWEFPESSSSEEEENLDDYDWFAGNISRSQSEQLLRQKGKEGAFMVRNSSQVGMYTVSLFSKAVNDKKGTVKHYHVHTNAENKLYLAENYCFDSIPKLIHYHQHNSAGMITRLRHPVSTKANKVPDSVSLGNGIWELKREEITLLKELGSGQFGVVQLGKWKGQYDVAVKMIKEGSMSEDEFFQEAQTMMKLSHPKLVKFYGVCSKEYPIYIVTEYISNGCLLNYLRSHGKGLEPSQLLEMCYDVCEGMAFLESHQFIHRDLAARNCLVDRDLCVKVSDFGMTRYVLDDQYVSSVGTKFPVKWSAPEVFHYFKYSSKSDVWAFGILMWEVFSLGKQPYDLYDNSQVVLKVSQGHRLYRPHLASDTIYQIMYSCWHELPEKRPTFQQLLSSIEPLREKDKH

| Compound | kinase-Nluc reporter destabilization hit call (ABL1) | kinase-Nluc reporter destabilization hit call (AKT1) | kinase-Nluc reporter destabilization hit call (ALK) | kinase-Nluc reporter destabilization hit call (ARAF) | kinase-Nluc reporter destabilization hit call (AURKA) | kinase-Nluc reporter destabilization hit call (AURKB) | kinase-Nluc reporter destabilization hit call (AURKC) | kinase-Nluc reporter destabilization hit call (BLK) | kinase-Nluc reporter destabilization hit call (BMX) | kinase-Nluc reporter destabilization hit call (BRAF) |
| --- | --- | --- | --- | --- | --- | --- | --- | --- | --- | --- |
| CNC(=O)c1ccccc1Nc1nc(Nc2ccc3c(c2OC)CCC[C@H](N2CCN(CCO)CC2)C3)ncc1Cl (10 µM) | active: 1 | inactive: 0 | inactive: 0 | inactive: 0 | inactive: 0 | inactive: 0 | inactive: 0 | inactive: 0 | inactive: 0 | inactive: 0 |
| Cc1cc(Nc2ncnc3ccc(-c4ccc(CNCCS(C)(=O)=O)o4)cc23)ccc1Oc1ccn2ncnc2c1 [ARRY-380 (analog )] (2.5 µM) | inactive: 0 | inactive: 0 | inactive: 0 | inactive: 0 | inactive: 0 | inactive: 0 | inactive: 0 | inactive: 0 | inactive: 0 | inactive: 0 |
| C[C@H](NC(=O)[C@H]1NCC[C@@H]1O)c1ccc(-c2noc(CCC3CCCC3)n2)cc1 (10 µM) | inactive: 0 | inactive: 0 | inactive: 0 | inactive: 0 | inactive: 0 | inactive: 0 | inactive: 0 | inactive: 0 | inactive: 0 | inactive: 0 |
| Cc1cnc(-c2ccc(-c3ccc(NC(=O)Nc4cccc(C(F)(F)F)c4)cc3F)c3c2C(=O)NC3)[nH]1 (10 µM) | inactive: 0 | inactive: 0 | inactive: 0 | inactive: 0 | inactive: 0 | inactive: 0 | inactive: 0 | inactive: 0 | inactive: 0 | inactive: 0 |
| Cc1cc(Nc2nc(CC3(C(=O)O)CCN(C(=O)c4cccc(Cl)c4Cl)CC3)ccc2F)n[nH]1 (10 µM) | inactive: 0 | inactive: 0 | inactive: 0 | inactive: 0 | inactive: 0 | inactive: 0 | inactive: 0 | inactive: 0 | inactive: 0 | inactive: 0 |
| C=CC(=O)N1C(=O)CC(c2ccc(F)cc2)Sc2ccccc21 (stereo not drawn) [GSK-3β inhibitor 3] (10 µM) | inactive: 0 | inactive: 0 | inactive: 0 | inactive: 0 | inactive: 0 | inactive: 0 | inactive: 0 | inactive: 0 | inactive: 0 | inactive: 0 |
| O=C(O)c1cc(N(Cc2ccccc2O)Cc2ccccc2O)ccc1O [Lavendustin B] (10 µM) | inactive: 0 | inactive: 0 | inactive: 0 | inactive: 0 | inactive: 0 | inactive: 0 | inactive: 0 | inactive: 0 | inactive: 0 | inactive: 0 |
| Nc1ncnc2c1c(COc1cccc(Cl)c1)nn2C1CCOCC1 (10 µM) | inactive: 0 | inactive: 0 | inactive: 0 | inactive: 0 | inactive: 0 | inactive: 0 | inactive: 0 | inactive: 0 | inactive: 0 | inactive: 0 |
| CCCCCCCCCCCCCCCCOP(=O)([O-])OCC[N+](C)(C)C [Miltefosine] (10 µM) | inactive: 0 | inactive: 0 | inactive: 0 | inactive: 0 | inactive: 0 | inactive: 0 | inactive: 0 | inactive: 0 | inactive: 0 | inactive: 0 |
| O=C(Nc1nc2ccc(NC(=O)C34CC5CC(CC(C5)C3)C4)cc2s1)c1ccccc1 (10 µM) | inactive: 0 | inactive: 0 | inactive: 0 | inactive: 0 | inactive: 0 | inactive: 0 | inactive: 0 | inactive: 0 | inactive: 0 | inactive: 0 |
| O=C1/C(=C\c2ccc(Cl)cc2)C=C(c2ccccc2)N1c1ccc(O)cc1 (2.5 µM) | inactive: 0 | inactive: 0 | inactive: 0 | inactive: 0 | inactive: 0 | inactive: 0 | inactive: 0 | inactive: 0 | inactive: 0 | inactive: 0 |
| O=C(Nc1cccc(C(F)(F)F)c1)c1cccc2cc(Oc3cc(CO)ncn3)ccc12 (10 µM) | inactive: 0 | inactive: 0 | inactive: 0 | inactive: 0 | inactive: 0 | inactive: 0 | inactive: 0 | inactive: 0 | inactive: 0 | inactive: 0 |
| CC(C)(C[C@H](N)C(=O)O)C(F)F [NV-5138 (hydrochloride)] (10 µM) | inactive: 0 | inactive: 0 | inactive: 0 | inactive: 0 | inactive: 0 | inactive: 0 | inactive: 0 | inactive: 0 | inactive: 0 | inactive: 0 |
| COc1cc(N(C)CCN(C)C)c(N)cc1Nc1nccc(-c2cn(C)c3ccccc23)n1 [Mutated EGFR-IN-1] (10 µM) | inactive: 0 | inactive: 0 | inactive: 0 | inactive: 0 | inactive: 0 | inactive: 0 | inactive: 0 | inactive: 0 | inactive: 0 | inactive: 0 |
| CC(C)=CCc1c(-c2ccc(O)cc2O)oc2c3c(cc(O)c2c1=O)OC(C)(C)C=C3 [Morusin] (2.5 µM) | inactive: 0 | inactive: 0 | inactive: 0 | inactive: 0 | inactive: 0 | inactive: 0 | inactive: 0 | inactive: 0 | inactive: 0 | inactive: 0 |
| Cc1nc(-c2cnn(C)c2)nc2c1[nH]c1ncc(-c3ccc(N4CCN(C)CC4)cc3)cc12 [GNE 220 (hydrochloride)] (10 µM) | inactive: 0 | inactive: 0 | inactive: 0 | inactive: 0 | inactive: 0 | inactive: 0 | inactive: 0 | inactive: 0 | inactive: 0 | inactive: 0 |
| CC[C@@](C)(Nc1ccnc(-c2c[nH]c3ncccc23)n1)C(=O)NCC(F)(F)F [Decernotinib] (10 µM) | inactive: 0 | inactive: 0 | inactive: 0 | inactive: 0 | inactive: 0 | inactive: 0 | inactive: 0 | inactive: 0 | inactive: 0 | inactive: 0 |

Looked up above.
In kinase-Nluc reporter destabilization hit call (ABL1), `O=C1/C(=C\c2ccc(Cl)cc2)C=C(c2ccccc2)N1c1ccc(O)cc1` (2.5 µM) has the entry inactive: 0
In kinase-Nluc reporter destabilization hit call (ABL1), `CCCCCCCCCCCCCCCCOP(=O)([O-])OCC[N+](C)(C)C` [Miltefosine] (10 µM) has the entry inactive: 0
In kinase-Nluc reporter destabilization hit call (ALK), `CC(C)=CCc1c(-c2ccc(O)cc2O)oc2c3c(cc(O)c2c1=O)OC(C)(C)C=C3` [Morusin] (2.5 µM) has the entry inactive: 0

The listing continues:

| Compound | kinase-Nluc reporter destabilization hit call (ABL1) | kinase-Nluc reporter destabilization hit call (AKT1) | kinase-Nluc reporter destabilization hit call (ALK) | kinase-Nluc reporter destabilization hit call (ARAF) | kinase-Nluc reporter destabilization hit call (AURKA) | kinase-Nluc reporter destabilization hit call (AURKB) | kinase-Nluc reporter destabilization hit call (AURKC) | kinase-Nluc reporter destabilization hit call (BLK) | kinase-Nluc reporter destabilization hit call (BMX) | kinase-Nluc reporter destabilization hit call (BRAF) |
| --- | --- | --- | --- | --- | --- | --- | --- | --- | --- | --- |
| C[C@@H]1CC(=O)c2c(ccc3c2C(=O)c2cccc(O)c2C3=O)C1 [Ochromycinone] (10 µM) | inactive: 0 | inactive: 0 | inactive: 0 | inactive: 0 | inactive: 0 | inactive: 0 | inactive: 0 | inactive: 0 | inactive: 0 | inactive: 0 |
| Cc1c(-c2ccc(C(N)=O)c3[nH]c4cc(C(C)(C)O)ccc4c23)cccc1-n1cnc2ccccc2c1=O (2.5 µM) | inactive: 0 | inactive: 0 | inactive: 0 | inactive: 0 | inactive: 0 | inactive: 0 | inactive: 0 | inactive: 0 | inactive: 0 | inactive: 0 |
| Nc1n[nH]c2nc(-c3ccc(NS(=O)(=O)c4cc(Cl)ccc4F)cc3)cnc12 (10 µM) | inactive: 0 | inactive: 0 | inactive: 0 | inactive: 0 | inactive: 0 | inactive: 0 | inactive: 0 | inactive: 0 | inactive: 0 | inactive: 0 |
| CCN(CC)CCC(=O)N1N=C(c2c(-c3ccccc3)c3cc(Br)ccc3[nH]c2=O)CC1c1ccc(Br)cc1 (stereo not given) (2.5 µM) | inactive: 0 | inactive: 0 | inactive: 0 | inactive: 0 | active: 1 | active: 1 | inactive: 0 | inactive: 0 | inactive: 0 | inactive: 0 |
| O=C1O[C@H]([C@@H](O)CO)C(O)=C1OP(=O)(O)O [2-Phospho-L-ascorbic acid (trisodium)] (10 µM) | inactive: 0 | inactive: 0 | inactive: 0 | inactive: 0 | inactive: 0 | inactive: 0 | inactive: 0 | inactive: 0 | inactive: 0 | inactive: 0 |
| C[C@@H]1O[C@@H](O[C@@H]2[C@@H](O)[C@H](OCCc3ccc(O)c(O)c3)O[C@H](CO)[C@H]2OC(=O)/C=C/c2ccc(O)c(O)c2)[C@H](O)[C@H](O)[C@H]1O [Verbascoside] (10 µM) | inactive: 0 | inactive: 0 | inactive: 0 | inactive: 0 | inactive: 0 | inactive: 0 | inactive: 0 | inactive: 0 | inactive: 0 | inactive: 0 |
| NC(=O)c1cnc2[nH]ccc2c1N[C@@H]1[C@@H]2CC3C[C@H]1C[C@@](O)(C3)C2 [Peficitinib] (10 µM) | inactive: 0 | inactive: 0 | inactive: 0 | inactive: 0 | inactive: 0 | inactive: 0 | inactive: 0 | inactive: 0 | inactive: 0 | inactive: 0 |
| Cn1cc2cc(C(F)(F)c3nnc4ccc(-c5cnn(C6CC6)c5)nn34)c(F)cc2n1 [Bozitinib] (10 µM) | inactive: 0 | inactive: 0 | inactive: 0 | inactive: 0 | inactive: 0 | inactive: 0 | inactive: 0 | inactive: 0 | inactive: 0 | inactive: 0 |
| Nc1ncnc2c1c(-c1ccc(Oc3ccccc3)cc1)nn2C1CCN(CCOCCOCCOc2ccc3c(c2)CN(C2CCC(=O)NC2=O)C3=O)CC1 (stereo not given) (2.5 µM) | inactive: 0 | inactive: 0 | inactive: 0 | inactive: 0 | inactive: 0 | inactive: 0 | inactive: 0 | inactive: 0 | inactive: 0 | inactive: 0 |
| CNC(=O)c1ccccc1Oc1nc(Nc2cc(OC)c(OC)c(OC)c2)ncc1Br (2.5 µM) | inactive: 0 | inactive: 0 | inactive: 0 | inactive: 0 | inactive: 0 | inactive: 0 | inactive: 0 | inactive: 0 | inactive: 0 | inactive: 0 |
| CCCCCCCC/C=C\CCCCCCCCCCCC(=O)O [Erucic acid] (10 µM) | inactive: 0 | inactive: 0 | inactive: 0 | inactive: 0 | inactive: 0 | inactive: 0 | inactive: 0 | inactive: 0 | inactive: 0 | inactive: 0 |
| Cc1cnc(NC2CCOCC2)nc1-n1cnc(C(=O)N[C@H](CN)c2cc(F)cc(Cl)c2)c1 (10 µM) | inactive: 0 | inactive: 0 | inactive: 0 | inactive: 0 | inactive: 0 | inactive: 0 | inactive: 0 | inactive: 0 | inactive: 0 | inactive: 0 |
| O=[N+]([O-])c1ccc2c(c1)S(=O)(=O)C=C2 [Stattic] (2.5 µM) | inactive: 0 | inactive: 0 | inactive: 0 | inactive: 0 | inactive: 0 | inactive: 0 | inactive: 0 | inactive: 0 | inactive: 0 | inactive: 0 |
| COc1cc2ncnc(-n3nc(-c4ccccn4)nc3N)c2cc1OC (10 µM) | inactive: 0 | inactive: 0 | inactive: 0 | inactive: 0 | inactive: 0 | inactive: 0 | inactive: 0 | inactive: 0 | inactive: 0 | inactive: 0 |
| C[C@H](Nc1ncnc2nc[nH]c12)c1cc2cccc(Cl)c2c(=O)n1-c1ccccc1 [Duvelisib] (10 µM) | inactive: 0 | inactive: 0 | inactive: 0 | inactive: 0 | inactive: 0 | inactive: 0 | inactive: 0 | inactive: 0 | inactive: 0 | inactive: 0 |
| Nc1nc(N)c2nc(-c3cccc(O)c3)cnc2n1 (10 µM) | inactive: 0 | inactive: 0 | inactive: 0 | inactive: 0 | inactive: 0 | inactive: 0 | inactive: 0 | inactive: 0 | inactive: 0 | inactive: 0 |

— the supplement of paper PMC12823440, “Inhibitors supercharge kinase turnover through native proteolytic circuits” (Nature, 2025)
